Data as given in PubChem BioAssay AID1224830 (NIAID, 2016).
Here is a random part of about 18,000 reagents tested. About 2,900 of all reagents (16%) were called active. 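Calls are made per well; low scores hint the gene aids the LPS response, high scores that it dampens it.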 Repeated entries: four replicate wells of each siRNA pool.

Aim: 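Genes whose knock-down alters the TNF-alpha reporter response to LPS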 (primary screen)
System: human THP-1 monocytic leukaemia cells, TNF dual-luciferase reporter clone, PMA-differentiated to macrophage-like cells
Knock-down reagent: siRNA pool against human genes, 50 nM
Time to read-out: LPS for 4 h, given about 3 days after siRNA transfection
Treatment: bacterial LPS (TLR4 ligand), 10 ng/ml
Detection: 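Ratio of firefly to renilla light, scaled to the plate median and expressed as a robust z-score per replicate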
Direction: TNF reporter robust z-score: higher = stronger TNF reporter response to LPS
Call rule: 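Each well counts as active if its z-score is over 2.8 or under -1.5; controls are left without a call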

gene	TNF reporter robust z-score	outcome
IRAK1 (GeneID 3654)	-1.2	inactive
IRAK1 (GeneID 3654)	-0.88	inactive
IRAK1 (GeneID 3654)	-0.75	inactive
IRAK1 (GeneID 3654)	0.31	inactive
KRTAP27-1 (GeneID 643812)	-1.12	inactive
KRTAP27-1 (GeneID 643812)	-1.63	active
KRTAP27-1 (GeneID 643812)	-0.98	inactive
KRTAP27-1 (GeneID 643812)	-0.83	inactive
ASB1 (GeneID 51665)	-0.44	inactive
ASB1 (GeneID 51665)	-0.86	inactive
ASB1 (GeneID 51665)	-0.43	inactive
ASB1 (GeneID 51665)	-1.78	active
FDX1 (GeneID 2230)	-1.92	active
FDX1 (GeneID 2230)	-1.55	active
FDX1 (GeneID 2230)	-1.82	active
FDX1 (GeneID 2230)	-1.4	inactive
SCNN1B (GeneID 6338)	-0.81	inactive
SCNN1B (GeneID 6338)	-1.16	inactive
SCNN1B (GeneID 6338)	-0.28	inactive
SCNN1B (GeneID 6338)	0.98	inactive
PSMC6 (GeneID 5706)	-1.27	inactive
PSMC6 (GeneID 5706)	-0.87	inactive
PSMC6 (GeneID 5706)	-1.06	inactive
PSMC6 (GeneID 5706)	-1.25	inactive
NACC1 (GeneID 112939)	-0.19	inactive
NACC1 (GeneID 112939)	0.44	inactive
NACC1 (GeneID 112939)	0.13	inactive
NACC1 (GeneID 112939)	0.47	inactive
HRNR (GeneID 388697)	-1.49	inactive
HRNR (GeneID 388697)	-1.2	inactive
HRNR (GeneID 388697)	-0.91	inactive

6 entries from above in another layout:
{"gene": "IRAK1 (GeneID 3654)", "TNF reporter robust z-score": -1.2, "outcome": "inactive"}
{"gene": "IRAK1 (GeneID 3654)", "TNF reporter robust z-score": -0.88, "outcome": "inactive"}
{"gene": "IRAK1 (GeneID 3654)", "TNF reporter robust z-score": -0.75, "outcome": "inactive"}
{"gene": "IRAK1 (GeneID 3654)", "TNF reporter robust z-score": 0.31, "outcome": "inactive"}
{"gene": "KRTAP27-1 (GeneID 643812)", "TNF reporter robust z-score": -1.12, "outcome": "inactive"}
{"gene": "KRTAP27-1 (GeneID 643812)", "TNF reporter robust z-score": -1.63, "outcome": "active"}

Next records:
gene	TNF reporter robust z-score	outcome
MMADHC (GeneID 27249)	-0.89	inactive
MMADHC (GeneID 27249)	-0.9	inactive
MMADHC (GeneID 27249)	-1.01	inactive
MMADHC (GeneID 27249)	-1.33	inactive
ZNF217 (GeneID 7764)	0.48	inactive
ZNF217 (GeneID 7764)	1.28	inactive
ZNF217 (GeneID 7764)	0.88	inactive
ZNF217 (GeneID 7764)	1.11	inactive
GABRA5 (GeneID 2558)	-0.45	inactive
GABRA5 (GeneID 2558)	-1.8	active
GABRA5 (GeneID 2558)	-0.71	inactive
GABRA5 (GeneID 2558)	-1.21	inactive
THEM4 (GeneID 117145)	0.46	inactive
THEM4 (GeneID 117145)	0.14	inactive
THEM4 (GeneID 117145)	0.39	inactive
THEM4 (GeneID 117145)	-0.31	inactive
